Laboratory results reported in PubChem BioAssay AID1671190 (National Center for Advancing Translational Sciences (NCATS), 2021).
About 6,100 (1.1%) of roughly 580,000 compounds were called active. This list was built around the results that the source calls inconclusive (neither active nor inactive); the mix of calls is not that of the screen. Calls come from the whole dose curve; as a rule, active = well fitted inhibition curve with a large enough effect; inconclusive = small, poorly fitted or top-dose-only effect, or another doubt; inactive = no such curve, though single readings can be large or run the other way. Potencies of inconclusive entries are doubtful fits and often do not repeat.

Amino acid sequences for entries named in this document (tags omitted).
UniProt P18054, whole entry, looked up: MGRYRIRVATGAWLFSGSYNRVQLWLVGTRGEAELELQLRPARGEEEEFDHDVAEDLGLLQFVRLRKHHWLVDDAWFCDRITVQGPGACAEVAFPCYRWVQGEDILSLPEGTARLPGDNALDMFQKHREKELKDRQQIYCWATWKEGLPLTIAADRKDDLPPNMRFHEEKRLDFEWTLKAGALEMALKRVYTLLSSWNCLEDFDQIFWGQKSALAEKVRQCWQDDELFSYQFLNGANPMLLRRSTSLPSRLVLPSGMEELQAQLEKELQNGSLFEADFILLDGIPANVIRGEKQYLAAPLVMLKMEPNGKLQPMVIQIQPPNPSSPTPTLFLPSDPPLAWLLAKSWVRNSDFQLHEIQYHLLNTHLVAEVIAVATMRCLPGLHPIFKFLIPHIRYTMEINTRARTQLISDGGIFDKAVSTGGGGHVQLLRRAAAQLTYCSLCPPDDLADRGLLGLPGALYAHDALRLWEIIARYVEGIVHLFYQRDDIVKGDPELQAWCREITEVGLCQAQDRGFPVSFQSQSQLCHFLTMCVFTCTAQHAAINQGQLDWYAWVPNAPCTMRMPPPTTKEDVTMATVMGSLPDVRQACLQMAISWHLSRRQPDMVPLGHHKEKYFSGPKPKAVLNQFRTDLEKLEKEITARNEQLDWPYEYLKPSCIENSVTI

These compounds were tested against Polyunsaturated fatty acid lipoxygenase ALOX12 (Homo sapiens) (UniProt P18054) (assay: Primary qHTS assay for inhibitors of human arachidonate 12S-lipoxygenase (ALOX12): Round 2). Conditions: purified 12hLO, xylenol orange hydroperoxide absorbance; series mostly up to 108 µM.
Method in brief: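 Purified human 12hLO at 150 nM in 25 mM Hepes, 0.01% Triton X-100, pH 7.0, preincubated 15 min at room temperature with compound. Reaction started with 40 uM arachidonic acid, 30 min at room temperature. Hydroperoxide measured by Fe-xylenol orange, 573/405 nm absorbance ratio.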
Potency is the fitted concentration of half-maximal effect.

Structure (SMILES)	Potency
Cc1nn(C(C)C)c(C)c1NC(=O)c1cc2occc2n1Cc1ccccc1Cl	inconclusive: 44.7 µM [inhibitor, partial curve, poor fit]
CSc1ccc(C2C(C(=O)c3ccco3)=C(O)C(=O)N2c2nnc(SC)s2)cc1 (stereo unspecified)	active: 39.8 µM
Cc1ccc(CN2CCN(Cc3cccn3-c3ccccn3)CC2CCO)cc1 (stereo unspecified)	inconclusive: 158 µM [inhibitor, single point]
CCc1cccc(NC(=O)CN2C(=O)NC(c3ccccc3Cl)C3=C2COC3=O)c1 (stereo unspecified)	inconclusive: 35.5 µM [inhibitor, full curve]
COc1ccc(Br)cc1S(=O)(=O)n1c([N+](=O)[O-])cnc1C	inconclusive: 89.1 µM [inhibitor, single point]
CCOC(=O)CC1=CCc2c1ccc(OC)c2OC	inconclusive: 100 µM [inhibitor, single point]
O=C(/C(=C/O)N=Nc1cccc(C(F)(F)F)c1)c1ccccc1	inconclusive: 35.5 µM [inhibitor, partial curve, poor fit]
CS(=O)(=O)c1ccc(OCCCN2CCC(C(O)(c3ccccc3)c3ccccc3)CC2)cc1	inactive
CS(=O)(=O)N1CCC2(CC1)CN(c1ccccn1)C2	inconclusive: 35.5 µM [inhibitor, single point]
CC(=O)Nc1ccc(Nc2ncnc3sc4c(c23)CCCC4)cc1	inconclusive: 5.62 µM [inhibitor, partial curve, poor fit]
Cc1n[nH]c(C)c1CCCCOc1ccc(C(C)(C)C)cc1	inconclusive: 25.1 µM [inhibitor, partial curve, poor fit]
CCc1c(C)nc2ncnn2c1Sc1ccc(NC(=O)c2ccc(OC)c(OC)c2)cc1	inconclusive: 2.82 µM [inhibitor, full curve, poor fit]
Cc1ccc(C(=O)CSc2ccc(-c3ccncc3)nn2)cc1	inactive
COc1ccc(/C([O-])=C(/C(=S)Nc2ccc(C)c(C)c2)n2c[n+](C)c3ccccc32)cc1OC	inconclusive: 50.1 µM [inhibitor, partial curve, poor fit]
CCOC(=O)c1ccc(NC(=O)Cn2cnc3sc(C(=O)OCC)c(C)c3c2=O)cc1	inconclusive: 112 µM [inhibitor, partial curve, poor fit]
COc1ccc(C(c2nnnn2C(C)(C)C)N2CCN(c3nc4ccccc4s3)CC2)cc1OC (stereo unspecified)	inactive
COc1ccc(N2CC(c3noc(-c4ccc(N(C)C)cc4)n3)CC2=O)cc1 (stereo unspecified)	inactive
CSc1ccccc1NC(=O)C(C)N(C)CC(=O)N1CCN(Cc2ccccc2)CC1 (stereo unspecified)	inconclusive: 0.316 µM [inhibitor, full curve, poor fit]
Cc1cnc(NC(=O)CSc2ccccc2)s1	inactive
COc1ccc(S(=O)(=O)NCC2CCCN(Cc3ccc(C)o3)C2)cc1 (stereo unspecified)	inactive
COc1cccc(NC(=O)COc2cc(O)c3c(c2)OC(C)(C)CC3=O)c1	inactive
CN(C)c1ccc(C(CC(=O)c2ccccc2)C2CCCCC2=O)cc1 (stereo unspecified)	inactive

Structure (SMILES)	Potency
Nc1ccc(-c2ccc(CO)o2)cc1	inactive
COc1ccc(OC)c(-c2csc(NC(=O)COC(=O)C3CCC3)n2)c1	inactive
O=C1COc2ccc(-c3csc(NCCc4ccccc4)n3)cc2N1	inconclusive: 35.5 µM [inhibitor, partial curve, poor fit]
Cc1ccc2[nH]c(=O)c(CN(CCc3ccccc3)Cc3nnnn3CC3CCCO3)cc2c1 (stereo unspecified)	inconclusive: 28.2 µM [inhibitor, partial curve, poor fit]
CC1CN(C(=O)Nc2cccc(CN3CCOC3=O)c2)CCO1 (stereo unspecified)	inconclusive: 1.58 µM [inhibitor, partial curve, poor fit]
Cc1ccc(C(=O)/C=C/c2ccc3c(c2)OCO3)o1	inconclusive: 63.1 µM [inhibitor, partial curve, poor fit]
CSc1ncc(Sc2ccccc2)c(C(=O)O)n1	inconclusive: 89.1 µM [inhibitor, partial curve, poor fit]
O=C(O)C(c1c[nH]c2cc(OCc3ccccc3)ccc12)N1CCN(c2ccc(Cl)cc2)CC1 (stereo unspecified)	inconclusive: 20 µM [inhibitor, partial curve, poor fit]
CC(CN1CCOCC1)OC(=O)C(c1ccccc1)c1ccccc1 (stereo unspecified)	inconclusive: 35.5 µM [inhibitor, partial curve, poor fit]
COc1ccc(N=CC2=C(O)CC(C)(C)CC2=O)cc1OC	inconclusive: 39.8 µM [inhibitor, partial curve, poor fit]
CCN1CCN(c2oc(COc3ccc(Cl)cc3Cl)nc2C#N)CC1	inconclusive: 50.1 µM [inhibitor, single point]
Clc1ccc(/C=N/Nc2ccc(Cl)c(Cl)c2)cc1Cl	inconclusive: 4.47 µM [inhibitor, full curve, poor fit]
COc1ccc(C(=O)N(Cc2ccc(N(C)C)cc2)C2CCS(=O)(=O)C2)cc1 (stereo unspecified)	inconclusive: 0.224 µM [inhibitor, full curve, poor fit]
Cc1ccc(-n2[nH]c(C)c(/C=N/Nc3ccc([N+](=O)[O-])cc3[N+](=O)[O-])c2=O)cc1	inactive
O=c1[nH]c(=O)n(Cc2ccccc2)c2nccc(-c3ccc4c(c3)OCO4)c12	inconclusive: 89.1 µM [inhibitor, partial curve, poor fit]
O=C(NC(c1ccccc1)c1ccsc1)C1CCN(Cc2ccc(Oc3ccccc3)cc2)CC1 (stereo unspecified)	inconclusive: 89.1 µM [inhibitor, single point]
Nc1c(Br)cc2c(c1Br)C(O)c1ccccc1-2 (stereo unspecified)	inconclusive: 39.8 µM [inhibitor, partial curve]
Nc1nc(N2CCCCC2)nc(N(c2ccccc2)c2ccccc2)n1	inactive
NC(=O)CCNC(=O)C1=C[C@@H](NC(=O)c2cccc(F)c2)[C@@H](O)[C@H](O)C1	inconclusive: 44.7 µM [inhibitor, partial curve, poor fit]
N#Cc1ccccc1-c1ccc2ncnc(NCc3cccs3)c2c1	active: 12.6 µM
Cc1cccc(OCCC(=O)OCC(=O)c2cc3ccccc3o2)c1	active: 50.1 µM
O=c1cccc(-c2ccc3ccccc3c2)o1	inconclusive: 44.7 µM [inhibitor, partial curve, poor fit]

Structure (SMILES)	Potency
C[C@H](NC(=O)c1ccco1)C(=O)Nc1ccc2c(c1)OCO2	inconclusive: 5.62 µM [inhibitor, full curve, poor fit]
Cc1ccc(S(=O)(=O)NCC(=O)NCC(=O)N(C)Cc2ccc3ccccc3c2)cc1C	inconclusive: 100 µM [inhibitor, single point]
CCOC(=O)NC(=O)C(=CNc1ccc(C)cc1)C(=O)NC(=O)OCC	inconclusive: 39.8 µM [inhibitor, partial curve, poor fit]
Cc1cccc(S(=O)(=O)N2CN(CC3CCCO3)c3nc4ccccc4nc32)c1 (stereo unspecified)	inconclusive: 39.8 µM [inhibitor, partial curve, poor fit]
CN(C)CCC(OC(=O)C1(c2ccccc2)CCCC1)c1ccccc1 (stereo unspecified)	inconclusive: 17.8 µM [inhibitor, full curve]
O=S(=O)(Nc1ccccc1-c1ccccc1)c1ccccc1	inactive
Cc1ccc(CCSc2cc(C(C)(C)C)c(F)c(C(C)(C)C)c2)cn1	inconclusive: 0.708 µM [inhibitor, full curve]
O=C(c1ccccc1)c1ccc(Oc2ccc(C(=O)O)c(C(=O)O)c2)cc1	inconclusive: 39.8 µM [inhibitor, partial curve, poor fit]
CCCOc1ccc(CCc2n[nH]c(=S)n2Cc2ccccc2)cc1	inconclusive: 39.8 µM [inhibitor, full curve, poor fit]
CCOc1ccccc1C(=O)NC(C(=O)OCc1ccccc1C)C(C)C (stereo unspecified)	inactive
O=C(CSc1nc2c(cnn2-c2ccc(F)cc2)c(=O)[nH]1)Nc1ccccc1C(F)(F)F	inactive
CCOc1ccc(/C=C2\CCC(C3CCCC3)C2=O)cc1 (stereo unspecified)	inactive
CCOC(=O)C1CCN(C/C=C/c2ccccc2[N+](=O)[O-])CC1	inconclusive: 1.12 µM [inhibitor, full curve, poor fit]
O=C(c1cccc(F)c1)N1CCC2(CC1)CCN(c1ccccn1)CC2	inactive
O=C(NCCNC1CCC(c2ccccc2)CC1)c1ccc(F)cc1 (stereo unspecified)	inconclusive: 12.6 µM [inhibitor, full curve]
Cc1ccncc1C(=O)N1CCCN(C(=O)C2CC2)C(c2ccccc2)CC(=O)NCC1 (stereo unspecified)	inactive
COc1ccc(C)cc1Nc1n[n+](-c2ccccc2)c(-c2ccc(OC)c(OC)c2OC)s1	inconclusive: 50.1 µM [inhibitor, partial curve, poor fit]
C=CCN1C=C2C(=O)C(C)(OC(=O)c3cnc4ccccc4n3)C(=O)C=C2C=C1/C=C/COC (stereo unspecified)	inconclusive: 7.08 µM [inhibitor, partial curve]
COc1ccccc1NC(=O)C1=C(C)Nc2nc(SCc3cccc(F)c3)nn2C1c1ccc(C(=O)O)cc1 (stereo unspecified)	inactive
CCCCn1c(=O)n(CC(=O)Nc2cccc(Cl)c2)c(=O)c2c1ncn2CCC(C)C	inactive
COc1cccc2cc(C(=O)OCC(=O)NCc3ccc4c(c3)OCO4)c(=O)oc12	inconclusive: 14.1 µM [inhibitor, partial curve, poor fit]
N#Cc1c(Nc2ccccc2)s[nH]c1=O	inconclusive: 7.94 µM [inhibitor, full curve, poor fit]

Quoted at random: 4 records from the list, in no set order.
Structure (SMILES)	Potency
CN(C)CCC(OC(=O)C1(c2ccccc2)CCCC1)c1ccccc1 (stereo unspecified)	inconclusive: 17.8 µM [inhibitor, full curve]
Cc1cnc(NC(=O)CSc2ccccc2)s1	inactive
Nc1c(Br)cc2c(c1Br)C(O)c1ccccc1-2 (stereo unspecified)	inconclusive: 39.8 µM [inhibitor, partial curve]
CSc1ccc(C2C(C(=O)c3ccco3)=C(O)C(=O)N2c2nnc(SC)s2)cc1 (stereo unspecified)	active: 39.8 µM
